Some entries share one result that the patent states for a list of compounds. For at least one compound, name, drawing or mass did not settle the structure.
Experiment: Particle size characterization of treprostinil compositions (QELS)
Format: physicochemical
Settings: particles of compositions comprising the alkyl ester, FIG. 2

SMILES	polydispersity (% PD)
CCCCCCCCCCCCCCCCCCOC(=O)COc1cccc2c1C[C@H]1C[C@@H](O)[C@H](CC[C@@H](O)CCCCC)[C@H]1C2 [Compound C18-TR]	greater than 15%
CCCCC[C@H](O)CC[C@@H]1[C@H]2Cc3cccc(OCC(=O)OCCC)c3C[C@H]2C[C@H]1O [Compound C3-TR]	greater than 15%

— patent US11795135B2, “Prostacyclin compounds, compositions and methods of use thereof” (Insmed Incorporated, priority 2013, dated 2023)
